Experimental data published in the supplement of paper PMC10849652.
Some of the results follow.

By UniProt entry, the sequences of proteins in these tests, tags left out. Where a name states a change or a piece, a line headed by the entry shows the natural chain unless it says otherwise.
UniProt Q9UPX8: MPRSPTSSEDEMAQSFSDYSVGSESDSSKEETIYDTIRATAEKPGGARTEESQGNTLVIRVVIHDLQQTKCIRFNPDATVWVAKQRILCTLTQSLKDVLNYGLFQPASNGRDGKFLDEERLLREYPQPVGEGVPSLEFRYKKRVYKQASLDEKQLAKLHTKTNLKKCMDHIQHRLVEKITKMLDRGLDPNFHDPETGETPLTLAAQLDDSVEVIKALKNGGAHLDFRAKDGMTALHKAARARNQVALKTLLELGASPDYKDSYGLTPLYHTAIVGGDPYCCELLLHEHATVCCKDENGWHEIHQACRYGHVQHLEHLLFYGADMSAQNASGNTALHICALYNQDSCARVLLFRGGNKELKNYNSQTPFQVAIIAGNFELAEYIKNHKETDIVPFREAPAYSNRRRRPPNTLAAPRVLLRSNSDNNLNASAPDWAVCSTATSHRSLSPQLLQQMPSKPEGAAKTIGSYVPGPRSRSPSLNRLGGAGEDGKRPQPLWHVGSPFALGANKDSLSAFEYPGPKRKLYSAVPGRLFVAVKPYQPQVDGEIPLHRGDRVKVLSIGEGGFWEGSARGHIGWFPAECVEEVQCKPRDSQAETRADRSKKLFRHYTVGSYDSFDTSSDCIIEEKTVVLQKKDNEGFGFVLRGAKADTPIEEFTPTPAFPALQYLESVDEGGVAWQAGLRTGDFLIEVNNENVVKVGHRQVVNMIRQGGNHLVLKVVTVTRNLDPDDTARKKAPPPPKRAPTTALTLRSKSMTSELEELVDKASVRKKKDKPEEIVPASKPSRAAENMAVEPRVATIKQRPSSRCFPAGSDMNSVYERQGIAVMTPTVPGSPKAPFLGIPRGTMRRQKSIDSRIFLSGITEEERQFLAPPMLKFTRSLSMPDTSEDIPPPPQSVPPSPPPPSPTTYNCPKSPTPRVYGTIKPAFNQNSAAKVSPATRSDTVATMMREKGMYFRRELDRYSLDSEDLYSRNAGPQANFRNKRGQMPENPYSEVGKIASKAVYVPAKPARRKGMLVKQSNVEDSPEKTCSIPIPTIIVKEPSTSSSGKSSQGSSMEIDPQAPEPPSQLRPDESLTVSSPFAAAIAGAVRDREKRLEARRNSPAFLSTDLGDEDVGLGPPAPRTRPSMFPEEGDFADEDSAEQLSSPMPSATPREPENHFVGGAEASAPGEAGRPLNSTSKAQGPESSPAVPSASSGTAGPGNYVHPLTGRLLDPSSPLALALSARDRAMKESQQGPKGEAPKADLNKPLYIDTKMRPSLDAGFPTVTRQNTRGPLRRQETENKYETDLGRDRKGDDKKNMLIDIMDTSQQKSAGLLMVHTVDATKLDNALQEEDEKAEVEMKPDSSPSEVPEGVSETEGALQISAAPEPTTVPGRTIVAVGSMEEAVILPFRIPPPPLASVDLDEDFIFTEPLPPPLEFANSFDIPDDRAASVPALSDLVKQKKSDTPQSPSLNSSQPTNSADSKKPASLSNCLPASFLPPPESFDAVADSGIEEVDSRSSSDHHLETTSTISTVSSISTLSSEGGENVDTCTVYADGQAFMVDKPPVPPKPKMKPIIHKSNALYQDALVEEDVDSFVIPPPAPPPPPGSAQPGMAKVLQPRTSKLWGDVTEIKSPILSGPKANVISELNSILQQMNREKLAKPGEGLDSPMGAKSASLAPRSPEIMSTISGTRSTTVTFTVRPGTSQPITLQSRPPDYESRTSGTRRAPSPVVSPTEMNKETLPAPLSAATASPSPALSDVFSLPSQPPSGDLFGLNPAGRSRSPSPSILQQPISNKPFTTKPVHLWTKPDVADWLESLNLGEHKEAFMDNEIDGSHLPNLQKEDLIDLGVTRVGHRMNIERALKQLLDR
UniProt Q8IX90, whole entry, looked up: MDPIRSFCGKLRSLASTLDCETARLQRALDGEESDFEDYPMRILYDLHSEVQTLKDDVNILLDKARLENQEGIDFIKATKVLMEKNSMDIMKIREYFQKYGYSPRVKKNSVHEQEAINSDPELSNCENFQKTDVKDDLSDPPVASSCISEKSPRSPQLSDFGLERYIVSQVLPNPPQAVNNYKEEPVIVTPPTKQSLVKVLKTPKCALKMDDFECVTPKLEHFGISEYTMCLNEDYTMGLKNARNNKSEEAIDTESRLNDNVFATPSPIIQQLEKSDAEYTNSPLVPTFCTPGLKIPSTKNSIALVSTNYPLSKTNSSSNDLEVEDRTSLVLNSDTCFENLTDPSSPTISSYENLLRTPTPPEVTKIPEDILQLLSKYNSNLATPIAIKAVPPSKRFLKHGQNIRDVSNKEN
UniProt O60613, whole entry, looked up: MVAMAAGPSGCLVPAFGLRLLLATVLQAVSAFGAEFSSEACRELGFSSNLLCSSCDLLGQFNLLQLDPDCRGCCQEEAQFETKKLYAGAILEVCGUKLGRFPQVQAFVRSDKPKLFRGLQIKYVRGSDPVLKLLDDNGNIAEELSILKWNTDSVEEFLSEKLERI
UniProt Q587I9: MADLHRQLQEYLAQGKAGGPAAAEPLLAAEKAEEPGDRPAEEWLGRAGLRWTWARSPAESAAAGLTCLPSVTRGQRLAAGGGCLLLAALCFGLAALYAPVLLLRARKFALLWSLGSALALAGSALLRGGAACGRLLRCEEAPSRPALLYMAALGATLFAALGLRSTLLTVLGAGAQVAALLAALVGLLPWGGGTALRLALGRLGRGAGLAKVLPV
UniProt Q13530: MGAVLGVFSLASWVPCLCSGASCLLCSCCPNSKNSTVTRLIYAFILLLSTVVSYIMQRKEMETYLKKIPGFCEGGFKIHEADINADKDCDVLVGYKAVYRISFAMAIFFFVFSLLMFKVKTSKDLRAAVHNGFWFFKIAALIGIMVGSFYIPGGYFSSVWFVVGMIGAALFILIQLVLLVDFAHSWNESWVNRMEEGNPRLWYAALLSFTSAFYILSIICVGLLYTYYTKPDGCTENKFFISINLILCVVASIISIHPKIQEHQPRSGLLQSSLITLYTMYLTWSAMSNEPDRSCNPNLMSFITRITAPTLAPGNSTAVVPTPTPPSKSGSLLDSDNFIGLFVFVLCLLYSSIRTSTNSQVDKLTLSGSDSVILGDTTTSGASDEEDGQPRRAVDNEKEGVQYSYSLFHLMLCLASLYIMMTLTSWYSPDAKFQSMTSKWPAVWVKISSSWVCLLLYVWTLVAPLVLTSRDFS
UniProt Q8N196: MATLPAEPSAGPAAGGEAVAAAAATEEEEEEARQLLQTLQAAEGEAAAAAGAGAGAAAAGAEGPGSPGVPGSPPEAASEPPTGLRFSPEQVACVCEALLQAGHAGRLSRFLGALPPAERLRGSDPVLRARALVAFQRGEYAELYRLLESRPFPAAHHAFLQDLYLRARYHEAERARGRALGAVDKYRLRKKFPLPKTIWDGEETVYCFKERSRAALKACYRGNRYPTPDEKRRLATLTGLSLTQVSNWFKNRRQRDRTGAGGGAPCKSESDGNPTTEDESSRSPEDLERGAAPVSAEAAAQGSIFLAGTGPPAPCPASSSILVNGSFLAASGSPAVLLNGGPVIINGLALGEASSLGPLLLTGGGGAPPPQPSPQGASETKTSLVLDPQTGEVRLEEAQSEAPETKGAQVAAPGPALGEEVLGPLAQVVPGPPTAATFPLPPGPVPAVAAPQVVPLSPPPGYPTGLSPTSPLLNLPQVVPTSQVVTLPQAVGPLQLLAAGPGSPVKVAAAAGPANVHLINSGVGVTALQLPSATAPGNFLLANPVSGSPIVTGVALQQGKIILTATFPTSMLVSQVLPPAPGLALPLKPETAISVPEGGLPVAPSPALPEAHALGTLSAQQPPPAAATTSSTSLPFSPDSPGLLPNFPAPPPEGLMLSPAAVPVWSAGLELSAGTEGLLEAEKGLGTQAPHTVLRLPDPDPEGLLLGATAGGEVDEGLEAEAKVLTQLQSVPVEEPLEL
UniProt O43255: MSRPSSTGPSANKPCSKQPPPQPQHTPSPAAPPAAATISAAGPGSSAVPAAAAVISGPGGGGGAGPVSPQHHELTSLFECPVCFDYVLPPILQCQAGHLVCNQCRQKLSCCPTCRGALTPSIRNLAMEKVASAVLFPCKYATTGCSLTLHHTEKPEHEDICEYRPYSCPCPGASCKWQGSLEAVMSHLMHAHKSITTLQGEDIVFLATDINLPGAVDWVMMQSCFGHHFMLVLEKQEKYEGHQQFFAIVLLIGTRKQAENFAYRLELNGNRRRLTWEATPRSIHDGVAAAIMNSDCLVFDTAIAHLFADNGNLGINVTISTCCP
UniProt Q9NRX5: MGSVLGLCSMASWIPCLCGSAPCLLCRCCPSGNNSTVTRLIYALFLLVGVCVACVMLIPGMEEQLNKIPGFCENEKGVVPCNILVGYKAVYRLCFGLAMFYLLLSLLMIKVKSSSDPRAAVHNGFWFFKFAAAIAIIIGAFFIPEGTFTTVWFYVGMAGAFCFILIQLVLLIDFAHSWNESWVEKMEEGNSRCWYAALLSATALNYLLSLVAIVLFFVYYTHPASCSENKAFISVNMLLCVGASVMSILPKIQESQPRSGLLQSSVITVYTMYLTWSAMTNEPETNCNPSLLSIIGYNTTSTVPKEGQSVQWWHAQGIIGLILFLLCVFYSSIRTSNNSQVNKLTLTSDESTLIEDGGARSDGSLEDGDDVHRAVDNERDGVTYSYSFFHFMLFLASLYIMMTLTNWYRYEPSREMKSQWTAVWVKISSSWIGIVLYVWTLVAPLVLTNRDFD
UniProt Q9HAT2: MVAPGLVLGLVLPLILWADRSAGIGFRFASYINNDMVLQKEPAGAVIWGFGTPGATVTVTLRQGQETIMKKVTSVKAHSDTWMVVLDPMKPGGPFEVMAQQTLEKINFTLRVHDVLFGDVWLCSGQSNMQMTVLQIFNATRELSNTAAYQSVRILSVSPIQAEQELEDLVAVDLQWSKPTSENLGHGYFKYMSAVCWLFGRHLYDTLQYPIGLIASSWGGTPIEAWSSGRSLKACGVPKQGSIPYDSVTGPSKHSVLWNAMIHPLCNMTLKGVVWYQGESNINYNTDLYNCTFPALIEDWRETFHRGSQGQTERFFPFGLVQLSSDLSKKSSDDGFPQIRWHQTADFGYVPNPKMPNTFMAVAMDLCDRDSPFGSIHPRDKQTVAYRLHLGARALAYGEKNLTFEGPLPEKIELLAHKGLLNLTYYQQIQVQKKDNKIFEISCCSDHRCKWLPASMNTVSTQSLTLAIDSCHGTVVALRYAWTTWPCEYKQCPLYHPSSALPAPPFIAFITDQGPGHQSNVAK
UniProt P62341, whole entry, looked up: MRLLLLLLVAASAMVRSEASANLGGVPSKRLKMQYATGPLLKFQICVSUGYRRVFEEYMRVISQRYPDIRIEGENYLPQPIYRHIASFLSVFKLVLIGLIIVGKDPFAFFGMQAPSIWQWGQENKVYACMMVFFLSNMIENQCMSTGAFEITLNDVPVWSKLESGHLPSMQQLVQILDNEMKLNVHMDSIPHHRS
UniProt O75563, whole entry, looked up: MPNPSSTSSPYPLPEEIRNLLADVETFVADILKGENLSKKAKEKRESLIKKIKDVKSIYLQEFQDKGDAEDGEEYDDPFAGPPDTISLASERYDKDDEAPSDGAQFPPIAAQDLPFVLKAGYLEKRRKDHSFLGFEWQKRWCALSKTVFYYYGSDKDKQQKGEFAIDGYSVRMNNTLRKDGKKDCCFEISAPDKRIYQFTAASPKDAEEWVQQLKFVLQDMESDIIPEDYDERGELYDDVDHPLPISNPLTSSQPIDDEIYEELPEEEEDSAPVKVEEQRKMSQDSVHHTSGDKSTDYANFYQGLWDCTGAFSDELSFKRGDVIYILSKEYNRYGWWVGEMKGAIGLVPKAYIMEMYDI
UniProt P31947: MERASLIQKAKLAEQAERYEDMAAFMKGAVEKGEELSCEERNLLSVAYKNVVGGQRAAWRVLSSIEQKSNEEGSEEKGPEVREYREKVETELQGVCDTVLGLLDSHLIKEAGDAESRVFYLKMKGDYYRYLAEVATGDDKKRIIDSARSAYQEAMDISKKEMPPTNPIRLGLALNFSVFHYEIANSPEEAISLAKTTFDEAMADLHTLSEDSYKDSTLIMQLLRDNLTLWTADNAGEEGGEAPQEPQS
UniProt A0MZ66, whole entry, looked up: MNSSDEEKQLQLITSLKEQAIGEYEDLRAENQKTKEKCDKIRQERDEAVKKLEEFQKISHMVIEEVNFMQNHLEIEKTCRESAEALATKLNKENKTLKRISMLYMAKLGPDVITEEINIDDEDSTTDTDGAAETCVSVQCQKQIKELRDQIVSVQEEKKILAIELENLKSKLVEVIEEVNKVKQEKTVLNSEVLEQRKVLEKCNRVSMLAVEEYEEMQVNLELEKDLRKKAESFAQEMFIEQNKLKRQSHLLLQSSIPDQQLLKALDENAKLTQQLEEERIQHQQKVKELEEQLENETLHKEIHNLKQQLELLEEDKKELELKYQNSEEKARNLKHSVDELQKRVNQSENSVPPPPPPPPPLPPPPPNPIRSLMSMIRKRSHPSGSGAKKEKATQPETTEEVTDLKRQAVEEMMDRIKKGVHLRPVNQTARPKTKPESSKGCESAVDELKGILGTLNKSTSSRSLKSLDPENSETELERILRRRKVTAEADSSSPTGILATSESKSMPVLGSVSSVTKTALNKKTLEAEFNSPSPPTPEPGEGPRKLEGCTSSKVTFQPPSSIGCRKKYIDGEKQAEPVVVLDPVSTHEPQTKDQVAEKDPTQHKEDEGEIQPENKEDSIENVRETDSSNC

Key:
Experiment in all cases: log2 fold change, soluble protein after heating vs DMSO (PISA); higher = thermal stabilisation; K562 cells, 10 uM, 30 min; active = over 0.2 and 3.5 SD of the protein, either way, in both replicates (recomputed)
[1] = compound: COC1=CC=C(C=C1)CN2C=CC3=C2C=C(C=C3)C(=O)NO
Method in brief: (§1)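 Thermal stability values are relative to control samples and come from duplicates. They are expressed as log2 fold changes. For measurement, K562 cells (2×10^6 cells/mL) received 10 μM compound for 30 min, and aliquots were heated for 3 min over 48°C-58°C, pooled, and extracted at 4°C in PBS with 0.5% NP-40. Soluble protein, the supernatant after 21,000xg for 90 min, was quantified by TMTpro 16plex LC-MS/MS with equalised channel sums.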

filanesib = compound: CON(C)C(=O)N1N=C(c2cc(F)ccc2F)S[C@@]1(CCCN)c1ccccc1 [filanesib]
Method in brief: as §1

zotarolimus = compound: CO[C@H]1C[C@@H]2CC[C@@H](C)[C@@](O)(O2)C(=O)C(=O)N2CCCC[C@H]2C(=O)O[C@H]([C@H](C)C[C@@H]2CC[C@H](n3cnnn3)[C@H](OC)C2)CC(=O)[C@H](C)/C=C(\C)[C@@H](O)[C@@H](OC)C(=O)[C@H](C)C[C@H](C)/C=C/C=C/C=C/1C [zotarolimus]
Method in brief: as §1

idasanutlin = compound: COc1cc(C(=O)O)ccc1NC(=O)[C@@H]1N[C@@H](CC(C)(C)C)[C@](C#N)(c2ccc(Cl)cc2F)[C@H]1c1cccc(Cl)c1F [idasanutlin]
Method in brief: as §1

[2] = compound: COc1cc2nc(-c3cc(F)ccc3O)nc(N[C@@H]3CNC[C@H]3C(C)(C)O)c2cc1OC
Method in brief: as §1

lapatinib = compound: CS(=O)(=O)CCNCc1ccc(-c2ccc3ncnc(Nc4ccc(OCc5cccc(F)c5)c(Cl)c4)c3c2)o1 [lapatinib]
Method in brief: as §1

pictilisib = compound: CS(=O)(=O)N1CCN(Cc2cc3nc(-c4cccc5[nH]ncc45)nc(N4CCOCC4)c3s2)CC1 [pictilisib]
Method in brief: as §1

alisertib = compound: COc1cc(Nc2ncc3c(n2)-c2ccc(Cl)cc2C(c2c(F)cccc2OC)=NC3)ccc1C(=O)O [alisertib]
Method in brief: as §1

gefitinib = compound: COc1cc2ncnc(Nc3ccc(F)c(Cl)c3)c2cc1OCCCN1CCOCC1 [gefitinib]
Method in brief: as §1

[3] = compound: COc1cccc2cc(-c3nc([C@H]4CC[C@H](C(=O)O)CC4)n4ncnc(N)c34)[nH]c12
Method in brief: as §1

Measured: log2 fold change

SIAH1 isoform 2 (UniProt Q8IUQ4)
inactive: [1] 0.152 | filanesib -0.049 | zotarolimus 0.057 | idasanutlin -0.067 | [2] -0.058 | lapatinib 0.018 | pictilisib 0.081

SF3B2 (UniProt Q13435)
inactive: [1] -0.042 | filanesib 0.166 | zotarolimus 0.012 | idasanutlin 0.048 | alisertib -0.03 | [2] -0.033 | gefitinib 0.008 | [3] -0.06 | lapatinib 0.049 | pictilisib -0.02

SKA1 (UniProt Q96BD8)
inactive: [1] -0.052 | filanesib 0.08 | zotarolimus 0.091 | alisertib -0.29 | [2] -0.011 | gefitinib -0.018 | [3] -0.206 | lapatinib 0.011 | pictilisib -0.007

SHANK2 isoform 3 (UniProt Q9UPX8)
inactive: [1] 0.086 | filanesib 0.077 | gefitinib 0.065

SKA3 (UniProt Q8IX90)
inactive: [1] -0.009 | filanesib 0.153 | zotarolimus 0.024 | alisertib -0.107 | [2] -0.058 | gefitinib -0.01 | [3] -0.114 | lapatinib 0.025 | pictilisib -0.131

SH3BP5 (UniProt O60239)
inactive: [1] -0.022 | filanesib -0.104 | zotarolimus -0.041 | idasanutlin 0.053 | alisertib -0.037 | [2] -0.021 | gefitinib -0.02 | [3] -0.03 | lapatinib 0.056 | pictilisib 0.145

SERPINB6, A0A087X1N8
inactive: [1] 0.099 | filanesib -0.051 | zotarolimus -0.006 | idasanutlin -0.032 | alisertib -0.078 | [2] -0.047 | gefitinib -0.002 | [3] 0.062 | lapatinib -0.006 | pictilisib -0.037

SIPA1 (UniProt Q96FS4)
inactive: [1] -0.108 | filanesib 0.059 | zotarolimus 0.025 | idasanutlin 0.014 | alisertib 0.069 | [2] -0.027 | gefitinib 0.041 | [3] -0.018 | lapatinib 0 | pictilisib -0.042

Reprinted from above (2 entries):
SERPINB6, A0A087X1N8
inactive: [1] 0.099 | filanesib -0.051 | zotarolimus -0.006 | idasanutlin -0.032 | alisertib -0.078 | [2] -0.047 | gefitinib -0.002 | [3] 0.062 | lapatinib -0.006 | pictilisib -0.037

SIPA1 (UniProt Q96FS4)
inactive: [1] -0.108 | filanesib 0.059 | zotarolimus 0.025 | idasanutlin 0.014 | alisertib 0.069 | [2] -0.027 | gefitinib 0.041 | [3] -0.018 | lapatinib 0 | pictilisib -0.042

Next part:

SETDB1 (UniProt Q15047)
inactive: [1] 0.207 | filanesib 0.027 | zotarolimus 0.013 | idasanutlin -0.051 | alisertib -0.14 | [2] 0.303 | gefitinib 0.021 | [3] 0.018 | lapatinib -0.063 | pictilisib 0.15

SELENOF (UniProt O60613)
inactive: [1] 0.015 | filanesib 0.025 | zotarolimus 0.022 | idasanutlin 0 | alisertib -0.054 | [2] 0.013 | gefitinib 0.006 | [3] -0.007 | lapatinib -0.03 | pictilisib 0.014

SFT2D3 (UniProt Q587I9)
inactive: [1] 0.024 | filanesib 0.052 | zotarolimus 0.058 | alisertib -0.164 | [2] -0.062 | gefitinib 0.145 | [3] 0.123 | lapatinib 0 | pictilisib -0.014

SERINC3 (UniProt Q13530)
inactive: [1] -0.015 | filanesib -0.222 | zotarolimus -0.062 | idasanutlin 0.136 | alisertib 0 | [2] -0.17 | gefitinib -0.069 | [3] 0.042 | lapatinib -0.181 | pictilisib 0.181

SERPIND1 (UniProt P05546)
inactive: [1] -0.01 | zotarolimus -0.031 | alisertib -0.196 | gefitinib 0.812 | [3] 0.303 | pictilisib -0.118

SELENOP (UniProt P49908)
inactive: [1] 0.081 | filanesib -0.052 | alisertib 0.048 | [3] 0.417

SF1 (UniProt H7C0N4)
inactive: [1] 0.163 | zotarolimus 0.076 | idasanutlin 0.076 | alisertib -0.028 | [2] -0.043 | gefitinib -0.179 | [3] 0.106 | lapatinib 0.04

SIX5 (UniProt Q8N196)
inactive: [1] 0.031 | zotarolimus -0.053 | idasanutlin 0.105 | alisertib -0.203 | [3] 0.131 | pictilisib 0.047

SERPINC1 (UniProt P01008)
inactive: [1] -0.19 | filanesib 0.091 | zotarolimus -0.057 | idasanutlin 0.088 | alisertib -0.059 | [2] -0.1 | gefitinib -0.072 | [3] 0.353 | lapatinib 0.002 | pictilisib -0.061

SIAH2 (UniProt O43255)
inactive: [1] -0.018 | zotarolimus -0.081 | idasanutlin -0.062 | alisertib -0.027 | [2] -0.034 | gefitinib 0.028 | [3] 0.025 | lapatinib -0.031

SEPHS1 (UniProt P49903)
inactive: [1] 0.041 | filanesib -0.114 | zotarolimus -0.024 | idasanutlin 0.01 | alisertib -0.055 | [2] -0.039 | gefitinib -0.02 | [3] 0.008 | lapatinib 0.026 | pictilisib 0.06

SF3A1 (UniProt Q15459)
inactive: [1] 0.003 | filanesib 0.061 | zotarolimus -0.009 | idasanutlin -0.005 | alisertib -0.065 | [2] 0.054 | gefitinib 0.021 | [3] -0.034 | lapatinib 0.011 | pictilisib -0.042

SERINC1 (UniProt Q9NRX5)
inactive: [1] 0.073 | filanesib -0.146 | idasanutlin 0.233 | alisertib 0.073 | [2] -0.208 | gefitinib -0.266 | [3] -0.167 | lapatinib -0.227

SIK3 (UniProt H0Y4E8)
inactive: [1] -0.015 | filanesib 0.085 | zotarolimus -0.073 | idasanutlin -0.065 | alisertib -0.018 | [2] 0.077 | gefitinib -0.026 | [3] 0.466 | lapatinib 0.036 | pictilisib -0.007

SHKBP1 (UniProt Q8TBC3)
inactive: [1] -0.02 | filanesib 0.05 | zotarolimus 0.018 | idasanutlin 0.013 | alisertib -0.005 | [2] 0.056 | gefitinib -0.026 | [3] 0.043 | lapatinib -0.036 | pictilisib -0.022

SIAE (UniProt Q9HAT2)
inactive: [1] -0.233 | filanesib -0.222 | zotarolimus -0.063 | idasanutlin 0.029 | [2] 0.138 | gefitinib 0.032 | lapatinib -0.208 | pictilisib 0.16

SELENOT (UniProt P62341)
inactive: [1] -0.022 | filanesib -0.077 | idasanutlin 0.086 | alisertib 0.01 | [2] -0.101 | gefitinib -0.098 | [3] 0.023 | lapatinib -0.163 | pictilisib -0.026

SEC61G (UniProt P60059)
inactive: [1] -0.076 | filanesib 0.059 | alisertib 0.09 | gefitinib -0.093 | [3] 0.052

SIRT3 (UniProt Q9NTG7)
inactive: [1] -0.063 | idasanutlin 0.416 | alisertib -0.079 | [3] 0.075 | pictilisib 0.126

SH3BGRL3 (UniProt Q9H299)
inactive: [1] -0.063 | filanesib 0.005 | zotarolimus 0.067 | idasanutlin -0.019 | alisertib -0.054 | [2] -0.076 | gefitinib 0.023 | [3] 0.019 | lapatinib 0.152 | pictilisib 0.019

SKAP2 (UniProt O75563)
inactive: [1] -0.11 | idasanutlin -0.087 | alisertib 0.026 | [2] 0.266 | [3] -0.017 | lapatinib -0.114

SFN (UniProt P31947)
inactive: [1] -0.114 | filanesib -0.029 | zotarolimus -0.026 | idasanutlin -0.06 | alisertib 0.731 | [2] -0.016 | gefitinib -0.013 | [3] 0.013 | lapatinib -0.073 | pictilisib 0

SHTN1 isoform 3 (UniProt A0MZ66)
inactive: [1] -0.034 | filanesib 0.048 | zotarolimus 0.027 | idasanutlin 0.012 | alisertib 0.028 | [2] 0.115 | gefitinib 0.048 | [3] 0.009 | lapatinib 0.009 | pictilisib 0.068

SF3B6 (UniProt Q9Y3B4)
inactive: [1] -0.022 | filanesib 0.01 | zotarolimus -0.017 | idasanutlin 0.034 | alisertib -0.07 | [2] -0.043 | gefitinib -0.027 | [3] 0.017 | lapatinib 0.073 | pictilisib 0.028
